Experimental data: paper PMC5898266
These are yes or no findings as the source states them, for the method shown. In cells and extracts the contact can be indirect. These calls come from enrichment with a bait or labelling near it, and not all partners need be listed. Where a sequence is shown, tags or fusion partners need not be part of it.

By UniProt entry, the sequences of proteins in these tests, tags left out.
UniProt O60506: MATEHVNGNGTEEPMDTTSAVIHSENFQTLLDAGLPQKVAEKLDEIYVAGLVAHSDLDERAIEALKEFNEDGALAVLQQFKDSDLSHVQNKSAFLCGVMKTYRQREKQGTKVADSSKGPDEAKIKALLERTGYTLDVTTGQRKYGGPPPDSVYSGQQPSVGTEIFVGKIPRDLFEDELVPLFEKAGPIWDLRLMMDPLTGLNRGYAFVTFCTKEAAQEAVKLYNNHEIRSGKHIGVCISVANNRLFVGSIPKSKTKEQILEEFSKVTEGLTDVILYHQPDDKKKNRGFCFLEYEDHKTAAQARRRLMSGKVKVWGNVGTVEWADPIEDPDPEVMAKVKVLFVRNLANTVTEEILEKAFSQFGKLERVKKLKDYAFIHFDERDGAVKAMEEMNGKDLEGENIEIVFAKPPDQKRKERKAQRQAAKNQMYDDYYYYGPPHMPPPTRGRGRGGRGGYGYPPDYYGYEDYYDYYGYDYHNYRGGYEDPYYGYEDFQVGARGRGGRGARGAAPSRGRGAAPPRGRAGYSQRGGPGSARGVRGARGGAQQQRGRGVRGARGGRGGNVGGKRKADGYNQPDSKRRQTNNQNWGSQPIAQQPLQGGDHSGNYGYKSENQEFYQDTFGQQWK

T1: Flag-tagged human ZFP36L2 (wild type) (human) (UniProt P47974)
T1 sequence: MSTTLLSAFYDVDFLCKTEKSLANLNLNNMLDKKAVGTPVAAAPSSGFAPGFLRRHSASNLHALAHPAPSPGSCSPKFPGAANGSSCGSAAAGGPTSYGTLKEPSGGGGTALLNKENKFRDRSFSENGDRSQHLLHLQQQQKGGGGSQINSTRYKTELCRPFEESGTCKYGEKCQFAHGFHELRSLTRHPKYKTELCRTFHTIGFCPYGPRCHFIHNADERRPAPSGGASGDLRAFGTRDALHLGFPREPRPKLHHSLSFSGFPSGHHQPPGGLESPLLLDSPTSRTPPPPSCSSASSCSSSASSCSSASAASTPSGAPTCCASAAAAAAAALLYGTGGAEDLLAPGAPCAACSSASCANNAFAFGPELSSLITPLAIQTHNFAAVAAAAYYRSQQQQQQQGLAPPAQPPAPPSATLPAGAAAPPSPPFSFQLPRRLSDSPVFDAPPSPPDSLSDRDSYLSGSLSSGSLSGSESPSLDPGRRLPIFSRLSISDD

B1: PRPSAP1 (protein, UniProt Q14558 1-356)
chain: MNAARTGYRVFSANSTAACTELAKRITERLGAELGKSVVYQETNGETRVEIKESVRGQDIFIIQTIPRDVNTAVMELLIMAYALKTACARNIIGVIPYFPYSKQSKMRKRGSIVCKLLASMLAKAGLTHIITMDLHQKEIQGFFSFPVDNLRASPFLLQYIQEEIPNYRNAVIVAKSPDAAKRAQSYAERLRLGLAVIHGEAQCTELDMDDGRHSPPMVKNATVHPGLELPLMMAKEKPPITVVGDVGGRIAIIVDDIIDDVESFVAAAEILKERGAYKIYVMATHGILSAEAPRLIEESSVDEVVVTNTVPHEVQKLQCPKIKTVDISLILSEAIRRIHNGESMAYLFRNITVDD
B2: PRPSAP2 (protein, UniProt O60256 1-369)
chain: MFCVTPPELETKMNITKGGLVLFSANSNSSCMELSKKIAERLGVEMGKVQVYQEPNRETRVQIQESVRGKDVFIIQTVSKDVNTTIMELLIMVYACKTSCAKSIIGVIPYFPYSKQCKMRKRGSIVSKLLASMMCKAGLTHLITMDLHQKEIQGFFNIPVDNLRASPFLLQYIQEEIPDYRNAVIVAKSPASAKRAQSFAERLRLGIAVIHGEAQDAESDLVDGRHSPPMVRSVAAIHPSLEIPMLIPKEKPPITVVGDVGGRIAIIVDDIIDDVDSFLAAAETLKERGAYKIFVMATHGLLSSDAPRRIEESAIDEVVVTNTIPHEVQKLQCPKIKTVDISMILSEAIRRIHNGESMSYLFRNIGLDD
B3: phospho-specific adaptor protein YWHAH (14-3-3η) (protein, UniProt Q04917 1-246)
chain: MGDREQLLQRARLAEQAERYDDMASAMKAVTELNEPLSNEDRNLLSVAYKNVVGARRSSWRVISSIEQKTMADGNEKKLEKVKAYREKIEKELETVCNDVLSLLDKFLIKNCNDFQYESKVFYLKMKGDYYRYLAEVASGEKKNSVVEASEAAYKEAFEISKEQMQPTHPIRLGLALNFSVFYYEIQNAPEQACLLAKQAFDDAIAELDTLNEDSYKDSTLIMQLLRDNLTLWTSDQQDEEAGEGN

The molecules below were run against T1, Flag-tagged human ZFP36L2 (wild type) (human) (assay: affinity purification with mass spectrometry; Flag-ZFP36L2 in HeLa cells arrested at G1/S, S, G2 or M phase; anti-Flag M2-agarose 1 h, lysis buffer 20 mM HEPES pH 7.5, 150 mM NaCl, 0.5% digitonin; elution with Flag peptide; LC/MS/MS; Flag empty vector as negative control).

binding, binds:
cytoplasmic RNA-binding protein SYNCRIP (from UniProt O60506 1-623), KH domain protein hnRNP-K (from UniProt P61978 1-463), B1, B2, B3
